From PubChem BioAssay AID2417 (National Center for Advancing Translational Sciences (NCATS), 2010)
Screen size: about 140,000 compounds; about 4,300 (3.1%) were called active. Inconclusive means that the source gave no clear call. Such entries were picked first, then a sample of the others.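 Rule for the calls: active = readout at or below -70, meaning at least 70% loss of cells showing the perinucleolar compartment, a nuclear body marking cancer cells; inconclusive = readout between -30 and a set limit; inactive = the rest.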

test: High Content Assay for Compounds that inhibit the Assembly of the Perinucleolar Compartment; details: PC3M PTB-GFP, PNC prevalence imaging, 16 h; at 10 µM; active compounds read low;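 note: plate controls were DMSO wells for no effect and camptothecin positive control wells for full effect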
Summary of the method: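 Read-out is percentage of cells bearing a perinucleolar compartment, from automated 20x imaging of fixed, Hoechst-stained PC3M PTB-GFP cells. Cells were seeded 4 h, then exposed 16 h to compound (23 nl of library stock) in duplicate plates.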

| SMILES | activity change (PNC), negative = inhibition |
| --- | --- |
| CC(=O)c1ccc(OCC(O)CN2CCN(c3ccccn3)CC2)cc1 (centres undefined) | inconclusive: -52% |
| CC12CN3CC(C)(CN(C1)C31C(=O)N(Cc3ccccc3)c3ccccc31)C2=O (centres undefined) | inconclusive: -53.3% |
| COc1ccc(NC(=O)C2CCN(S(=O)(=O)c3c(C)noc3C)CC2)cc1Cl | inconclusive: -33.7% |
| O=C(NC(C(=O)c1ccccc1)N1CCCCCC1)c1ccco1 (centres undefined) | inconclusive: -70.1% |
| CC1CCC(N2CCN(c3ncccn3)CC2)C1 (centres undefined) | inconclusive: -30.3% |
| Cc1c(CN2CCCCC2)c(O)n(CCCO)c(=O)c1C#N | inconclusive: -56.9% |
| O=C(c1ccccc1)c1c2c(cc3sc4ccccc4[n+]13)-c1cccc3cccc-2c13 | inactive: -13.9% |
| Cc1nc(-n2ncc(C#N)c2N)c2c3c(sc2n1)CCC3 | inactive: 1.66% |
| CCOc1ccc(NC2C=CS(=O)(=O)C2)cc1 (centres undefined) | inconclusive: -48.6% |
| O=c1nc2n(c3ccccc13)Cc1ccccc1-2 | inconclusive: -38% |
| COc1ccc2c(c1)C(C)=CC(C)(C)N2C(=O)C(C)N1C(=O)c2ccccc2C1=O (centres undefined) | inconclusive: -57.6% |
| O=C(/C=C/c1ccco1)NC(=S)Nc1ccc(O)c(-c2nc3ccccc3s2)c1 | inactive: 39.2% |
| C/C=C/CSc1nc2c(c(=O)[nH]c(=O)n2C)n1C(C)C | inactive: 71.3% |
| COc1cccc(N(C(=O)c2cnccn2)C(C(=O)NC2CCCCC2)c2ccc(Cl)cc2)c1 (centres undefined) | inconclusive: -61.2% |
| COc1ccc(C2=CSC3=C(C(=O)c4cccc(S(=O)(=O)N(C)C)c4)CCN23)cc1 | inconclusive: -42.2% |
| CCOc1ccc(NC(=O)CSC(N)=O)cc1 | inactive: 24.2% |
| CCn1cc(C(=O)NCc2ccccn2)c(=O)c2cc(S(=O)(=O)N3CCCCC3)ccc21 | inactive: -19.4% |
| CC(NC(=O)c1ccccc1Cl)C(=O)O (centres undefined) | inconclusive: -46% |
| COC(=O)c1ccc(NC(=O)c2ccc3c(c2)OCO3)cc1 | inconclusive: -45.6% |
| Cc1cc(Br)ccc1SCC(=O)OCC(=O)NCc1ccc2c(c1)OCO2 | inconclusive: -50% |
| COc1ccc(C(=O)C(C)N(C(=O)c2ccc(Cl)cc2Cl)N2C(=O)C3C4C=CC(C4)C3C2=O)cc1 (centres undefined) | inactive: 4.17% |
| CC(=O)O[C@]1(C(C)=O)CC[C@H]2[C@@H]3C=C(Cl)C4=CC(=O)CC[C@]4(C)[C@H]3CC[C@@]21C | inactive: -0.63% |

| SMILES | activity change (PNC), negative = inhibition |
| --- | --- |
| O=C(O)c1[nH]c2ccccc2c1CC(=O)N1CCOCC1 | inconclusive: -45.7% |
| O=C(CC1Nc2ccccc2NC1=O)NC1CCCCC1 (centres undefined) | inconclusive: -32% |
| Cc1cc(C)cc(NC(=S)NCC2CCCO2)c1 (centres undefined) | inconclusive: -38.1% |
| CCOC(=O)c1cc([N+](=O)[O-])c([N+](=O)[O-])cc1NC(C)=O | inactive: -25.7% |
| Nc1ccccc1Nc1ccccc1 | inactive: 10.6% |
| O=c1cc(CSc2ccc(Cl)cc2)nc2nc[nH]n12 | inconclusive: -34.9% |
| O=C(c1cnc(N2CCN(c3ncccn3)CC2)c2ccccc12)N1CCN(c2ccccn2)CC1 | inconclusive: -65.9% |
| Cc1ccc(C)c(C(=O)COc2ccccc2[N+](=O)[O-])c1 | inconclusive: -58.6% |
| O=C(COC(=O)c1cccc(NS(=O)(=O)c2ccc(F)c(F)c2)c1)NC(=O)NC1CCCC1 | inconclusive: -38.7% |
| COC(=O)c1ccc(Nc2cc(C)nc3ncnn23)cc1 | inactive: 17.2% |
| CCOc1cc(C)nc(Oc2ccc(=O)[nH]n2)n1 | inconclusive: -73.8% |
| Cc1cn(S(=O)(=O)c2ccc(Br)c3ccccc23)cn1 | inconclusive: -38% |
| CCCCNC(=O)COC(=O)c1cc(C)nc2ccccc12 | inconclusive: -33.1% |
| CCNC(=S)N/N=C/c1cccc(C)c1 | inconclusive: -30.6% |
| COc1cccc(C2C(C(=O)c3cc4cccc(OC)c4o3)=C(O)C(=O)N2c2cc(C)on2)c1OC (centres undefined) | inactive: 13.2% |
| CCOc1ccc2nc(NC(=O)C(NS(=O)(=O)c3cccc4nsnc34)C(C)C)sc2c1 (centres undefined) | inconclusive: -35.9% |
| CC(O)Cc1nsc(NC(=O)c2cccs2)n1 (centres undefined) | inconclusive: -39.6% |
| O=C(O)c1ccc(N/N=C/c2cccc(F)c2)cc1 | inactive: 10.5% |
| COC(=O)c1cc(COc2ccc3c4c(c(=O)oc3c2)CCC4)c(C)o1 | inactive: 38.8% |
| Cc1c(NC(=O)C(C)OC(=O)CNC(=O)c2ccccc2)c(=O)n(-c2ccccc2)n1C (centres undefined) | inconclusive: -30.7% |
| Cc1ccc(S(=O)(=O)NCc2nc3ccccc3c(=O)n2N)cc1 | inconclusive: -53.4% |
| Cc1ccc(N(CN2CCCC2=O)C(=O)c2ccc(OC(C)C)cc2)cc1 | inconclusive: -33.7% |

Three structures from above, ordered by SMILES length, rising:

| SMILES | activity change (PNC), negative = inhibition |
| --- | --- |
| Cc1cn(S(=O)(=O)c2ccc(Br)c3ccccc23)cn1 | inconclusive: -38% |
| CCOc1ccc2nc(NC(=O)C(NS(=O)(=O)c3cccc4nsnc34)C(C)C)sc2c1 (centres undefined) | inconclusive: -35.9% |
| Cc1c(NC(=O)C(C)OC(=O)CNC(=O)c2ccccc2)c(=O)n(-c2ccccc2)n1C (centres undefined) | inconclusive: -30.7% |
